From the supplement of paper PMC4604168 (melanoma cell lines)
The other results are listed elsewhere or left out. Single values are uncertain, as repeats are few or missing.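 Imaging used 1,536-well plates; nuclei positive for cleaved PARP by antibody were divided by total DNA-stained nuclei to yield the apoptosis fraction. Doses for screening kept most cells viable, and cell lines differ markedly in resting and induced cleaved-PARP levels.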

Tested on: COLO800
Assay: cleaved PARP positive nuclei fraction relative to DMSO control; melanoma cells; higher = more apoptosis
Details: library dose: low library concentration; 72 h

Structure (SMILES) | cleaved PARP positive nuclei fraction [%]
Cc1cn(-c2cc(NC(=O)c3ccc(C)c(Nc4nccc(-c5cccnc5)n4)c3)cc(C(F)(F)F)c2)cn1 [nilotinib] + CN(c1ncccc1CNc1nc(Nc2ccc3c(c2)CC(=O)N3)ncc1C(F)(F)F)S(C)(=O)=O [PF562271] (first compound 0.2 µM, partner dose 0.08 µM) | 166
CC[C@]1(O)C[C@H]2CN(CCc3c([nH]c4ccccc34)[C@@](C(=O)OC)(c3cc4c(cc3OC)N(C=O)[C@H]3[C@@](O)(C(=O)OC)[C@H](OC(C)=O)[C@]5(CC)C=CCN6CC[C@]43[C@@H]65)C2)C1 [vincristine] + COCC[n+]1c2c(n(Cc3cnccn3)c1C)C(=O)c1ccccc1C2=O [YM155] (first compound 0.0001 µM, partner dose 0.0004 µM) | 48.6
Cc1cn(-c2cc(NC(=O)c3ccc(C)c(Nc4nccc(-c5cccnc5)n4)c3)cc(C(F)(F)F)c2)cn1 [nilotinib] + O=C(O)[C@@H]1[O][Sb](=[O])([O][Sb]2(=[O])[O][C@H]([C@H](O)CO)[C@H](O)[C@H](C(=O)O)[O]2)[O][C@H]([C@H](O)CO)[C@@H]1O [stibogluconate] (first compound 0.2 µM, partner dose 2 µM) | 51.7
COc1cc([C@@H]2c3cc4c(cc3[C@@H](O[C@@H]3O[C@@H]5CO[C@@H](C)O[C@H]5[C@H](O)[C@H]3O)[C@H]3COC(=O)[C@H]23)OCO4)cc(OC)c1O [etoposide] + CCCCCCCCCCCCCCCCCCOP(=O)([O-])OC1CC[N+](C)(C)CC1 [Perifosine] (first compound 0.02 µM, partner dose 0.4 µM) | 132
O=C(/C=C/c1cccnc1)NCCCCC1CCN(C(=O)c2ccccc2)CC1 + CS(=O)(=O)c1ccc(C(=O)Nc2ccc(Cl)c(-c3ccccn3)c2)c(Cl)c1 [vismodegib] (first compound 0.01 µM, partner dose 1 µM) | 235
O=C(Nc1cc(C(F)(F)F)cc(C(F)(F)F)c1)c1cc(Cl)ccc1O + CCCCCCCCc1ccc(CCC(N)(CO)CO)cc1 [fingolimod] (first compound 0.016 µM, partner dose 2 µM) | 63.5
CC[C@]1(O)C[C@H]2CN(CCc3c([nH]c4ccccc34)[C@@](C(=O)OC)(c3cc4c(cc3OC)N(C=O)[C@H]3[C@@](O)(C(=O)OC)[C@H](OC(C)=O)[C@]5(CC)C=CCN6CC[C@]43[C@@H]65)C2)C1 [vincristine] + CCCCCCCCCCCCCCCCCCOP(=O)([O-])OC1CC[N+](C)(C)CC1 [Perifosine] (first compound 0.0001 µM, partner dose 0.4 µM) | 71.2
Cc1cc(Nc2cc(N3CCN(C)CC3)nc(Sc3ccc(NC(=O)C4CC4)cc3)n2)n[nH]1 [Tozasertib] + C#Cc1cccc(Nc2ncnc3cc(OCCOC)c(OCCOC)cc23)c1 [erlotinib] (first compound 0.006 µM, partner dose 0.8 µM) | 144
Cc1cc(Nc2cc(N3CCN(C)CC3)nc(Sc3ccc(NC(=O)C4CC4)cc3)n2)n[nH]1 [Tozasertib] + CO[C@H]1C[C@@H]2CC[C@@H](C)[C@@](O)(O2)C(=O)C(=O)N2CCCC[C@H]2C(=O)O[C@H]([C@H](C)C[C@@H]2CC[C@@H](OCCO)[C@H](OC)C2)CC(=O)[C@H](C)/C=C(\C)[C@@H](O)[C@@H](OC)C(=O)[C@H](C)C[C@H](C)/C=C/C=C/C=C/1C [everolimus] (first compound 0.006 µM, partner dose 0.02 µM) | 103
Cc1ccc(Nc2nccc(N(C)c3ccc4c(C)n(C)nc4c3)n2)cc1S(N)(=O)=O [Pazopanib] + C#Cc1cccc(Nc2ncnc3cc(OCCOC)c(OCCOC)cc23)c1 [erlotinib] (first compound 0.4 µM, partner dose 0.8 µM) | 99.3
CCCCCCCCCCCCCCCCCCOP(=O)([O-])OC1CC[N+](C)(C)CC1 [Perifosine] + C=C(c1ccc(C(=O)O)cc1)c1cc2c(cc1C)C(C)(C)CCC2(C)C [Bexarotene] (first compound 0.4 µM, partner dose 2 µM) | 145
O=c1[nH]nc(Sc2ncc([N+](=O)[O-])s2)n1-c1ccc2c(c1)OCCO2 + Cc1cc(Nc2cc(N3CCN(C)CC3)nc(/C=C/c3ccccc3)n2)n[nH]1 [ENMD2076] (first compound 0.2 µM, partner dose 0.04 µM) | 109
CCCCCCCCCCCCCCCCCCOP(=O)([O-])OC1CC[N+](C)(C)CC1 [Perifosine] + Clc1ccc(Nc2nnc(Cc3ccncc3)c3ccccc23)cc1 [vatalanib] (first compound 0.4 µM, partner dose 2 µM) | 86.3
Cc1cn(-c2cc(NC(=O)c3ccc(C)c(Nc4nccc(-c5cccnc5)n4)c3)cc(C(F)(F)F)c2)cn1 [nilotinib] + Cn1nnc2c(C(N)=O)ncn2c1=O [temozolomide] (first compound 0.2 µM, partner dose 2 µM) | 92.3

An excerpt of the results above, for reference:
Structure (SMILES) | cleaved PARP positive nuclei fraction [%]
CC[C@]1(O)C[C@H]2CN(CCc3c([nH]c4ccccc34)[C@@](C(=O)OC)(c3cc4c(cc3OC)N(C=O)[C@H]3[C@@](O)(C(=O)OC)[C@H](OC(C)=O)[C@]5(CC)C=CCN6CC[C@]43[C@@H]65)C2)C1 [vincristine] + CCCCCCCCCCCCCCCCCCOP(=O)([O-])OC1CC[N+](C)(C)CC1 [Perifosine] (first compound 0.0001 µM, partner dose 0.4 µM) | 71.2
Cc1cc(Nc2cc(N3CCN(C)CC3)nc(Sc3ccc(NC(=O)C4CC4)cc3)n2)n[nH]1 [Tozasertib] + C#Cc1cccc(Nc2ncnc3cc(OCCOC)c(OCCOC)cc23)c1 [erlotinib] (first compound 0.006 µM, partner dose 0.8 µM) | 144
Cc1cc(Nc2cc(N3CCN(C)CC3)nc(Sc3ccc(NC(=O)C4CC4)cc3)n2)n[nH]1 [Tozasertib] + CO[C@H]1C[C@@H]2CC[C@@H](C)[C@@](O)(O2)C(=O)C(=O)N2CCCC[C@H]2C(=O)O[C@H]([C@H](C)C[C@@H]2CC[C@@H](OCCO)[C@H](OC)C2)CC(=O)[C@H](C)/C=C(\C)[C@@H](O)[C@@H](OC)C(=O)[C@H](C)C[C@H](C)/C=C/C=C/C=C/1C [everolimus] (first compound 0.006 µM, partner dose 0.02 µM) | 103
